In patent US9517222B2, “Method for the treatment of senile dementia of the Alzheimer's type” (Phenomenome Discoveries Inc., priority 2007, dated 2016):
Some values come without a unit; they compare only within their column.

Key:
[1] = Serum ethanolamine phospholipid ratios to PtdEt 16:0/18:0 (M01) in human cohorts
[2] = Serum ethanolamine phospholipid levels in human cohorts (dementia severity, post-mortem pathology, age) by flow-injection MS/MS
[3] = serum, females, post mortem SDAT
[4] = serum, females, post mortem control

SMILES: CCCCC/C=C\C/C=C\CCCCCCCC(=O)OC(COCCCCCCCCCCCCCCCC)COP(=O)(O)OCCN (centres unmarked) [Metabolite M06, Plasmanyl 16:0/18:2]
- Ratio of ethanolamine phospholipid ratios to M01 between cohorts ([1]; AD, All to CN, Male): 0.833
- Ratio of ethanolamine phospholipid ratios to M01 between cohorts ([1]; ADAS 5-19 to CN, Male): 0.827
- Ratio of ethanolamine phospholipid ratios to M01 between cohorts ([1]; ADAS 20-39 to CN, Male): 0.840
- Ratio of ethanolamine phospholipid ratios to M01 between cohorts ([1]; ADAS 40-70 to CN, Male): 0.828
- Average serum ethanolamine phospholipid ratio to M01, Mean ([1]; Cognitive Normal, Male, serum): 0.255
- Average serum ethanolamine phospholipid ratio to M01, Mean ([1]; SDAT, ADAS 5-19, Male, serum): 0.211
- Average serum ethanolamine phospholipid ratio to M01, Mean ([1]; SDAT, ADAS 20-39, Male, serum): 0.214
- Average serum ethanolamine phospholipid ratio to M01, Mean ([1]; SDAT, ADAS 40-70, Male, serum): 0.211
- Average serum ethanolamine phospholipid ratio to M01, Mean ([1]; SDAT_all, Male, serum): 0.213
- Ethanolamine Phospholipid Ratio to M01, Mean, Age Ctl, 30-39, Female ([1]; human serum, females aged 30-39): 0.311
- Ethanolamine Phospholipid Ratio to M01, Mean, Age Ctl, 40-49, Female ([1]; human serum, females aged 40-49): 0.291
- Ethanolamine Phospholipid Ratio to M01, Mean, Age Ctl, 50-59, Female ([1]; human serum, females aged 50-59): 0.261
- Ratio of Ethanolamine Phospholipid Ratio to M01, 50-59 vs. 40-49, Female ([1]; human serum, females aged 50-59 vs. females aged 40-49): 0.896
- Ethanolamine Phospholipid Ratio to M01, Mean, Age Ctl, 60-69, Female ([1]; human serum, females aged 60-69): 0.193
- Ratio of Ethanolamine Phospholipid Ratio to M01, 60-69 vs. 40-49, Female ([1]; human serum, females aged 60-69 vs. females aged 40-49): 0.662
- Ethanolamine Phospholipid Ratio to M01, Mean, Age Ctl, 70+_Female ([1]; human serum, females aged 70+): 0.213
- Ratio of Ethanolamine Phospholipid Ratio to M01, 70+ vs. 40-49, Female ([1]; human serum, females aged 70+ vs. females aged 40-49): 0.733
- Ratio of Ethanolamine Phospholipid Ratio to M01, 50-59 vs. 40-49, Male ([1]; human serum, males aged 50-59 vs. males aged 40-49): 1.041
- Ratio of Ethanolamine Phospholipid Ratio to M01, 60-69 vs. 40-49, Male ([1]; human serum, males aged 60-69 vs. males aged 40-49): 0.851
- Ratio of Ethanolamine Phospholipid Ratio to M01, 70+ vs. 40-49, Male ([1]; human serum, males aged 70+ vs. males aged 40-49): 0.898
- Ratio of ethanolamine phospholipid ratio to M01, ADAS 5-19 to CN, Female ([1]; serum, females, ADAS 5-19 vs cognitive normal): 0.966
- Ratio of ethanolamine phospholipid ratio to M01, ADAS 20-39 to 5-19, Female ([1]; serum, females, ADAS 20-39 vs ADAS 5-19): 0.961
- Ratio of ethanolamine phospholipid ratio to M01, ADAS 20-39 to CN, Female ([1]; serum, females, ADAS 20-39 vs cognitive normal): 0.928
- Ratio of ethanolamine phospholipid ratio to M01, ADAS 40-70 to 5-19, Female ([1]; serum, females, ADAS 40-70 vs ADAS 5-19): 0.797
- Ratio of ethanolamine phospholipid ratio to M01, ADAS 40-70 to 20-39, Female ([1]; serum, females, ADAS 40-70 vs ADAS 20-39): 0.830
- Ratio of ethanolamine phospholipid ratio to M01, ADAS 40-70 to CN, Female ([1]; serum, females, ADAS 40-70 vs cognitive normal): 0.771
- Ethanolamine phospholipid ratio to M01, Mean, SDAT, ADAS 5-19, Female ([1]; serum, females, SDAT ADAS 5-19): 0.226
- Ethanolamine phospholipid ratio to M01, Mean, SDAT, ADAS 20-39, Female ([1]; serum, females, SDAT ADAS 20-39): 0.217
- Ethanolamine phospholipid ratio to M01, Mean, SDAT, ADAS 40-70, Female ([1]; serum, females, SDAT ADAS 40-70): 0.180
- Ratio of ethanolamine phospholipid ratio to M01, AD, All to CN, Female ([1]; serum, females, all AD vs cognitive normal): 0.885
- Ethanolamine phospholipid ratio to M01, Mean, SDAT_all Female ([1]; serum, females, all SDAT): 0.207
- Ratio of ethanolamine phospholipid ratio to M01, Autopsy AD vs. Control, Female ([1]; serum, females, autopsy AD vs post mortem control): 0.855
- Ethanolamine phospholipid ratio to M01, Mean, Cognitive Normal, Female ([1]; serum, females, cognitive normal): 0.234
- Ethanolamine phospholipid ratio to M01, Mean, Post Mortem SDAT Female [1, 3]: 0.059
- Ethanolamine phospholipid ratio to M01, Mean, Post Mortem Ctl, Female [1, 4]: 0.069
- Ratio of ethanolamine phospholipid ratio to M01, ADAS 20-39 to 5-19, Male ([1]; serum, males, SDAT ADAS 20-39 vs ADAS 5-19): 1.016
- Ratio of ethanolamine phospholipid ratio to M01, ADAS 40-70 to 5-19, Male ([1]; serum, males, SDAT ADAS 40-70 vs ADAS 5-19): 1.002
- Ratio of ethanolamine phospholipid ratio to M01, ADAS 40-70 to 20-39, Male ([1]; serum, males, SDAT ADAS 40-70 vs ADAS 20-39): 0.987
- Ethanolamine phospholipid ratio to M01, Mean, Age Ctl, 30-39, Male ([1]; serum, males, age control 30-39): 0.263
- Ethanolamine phospholipid ratio to M01, Mean, Age Ctl, 40-49, Male ([1]; serum, males, age control 40-49): 0.234
- Ethanolamine phospholipid ratio to M01, Mean, Age Ctl, 50-59, Male ([1]; serum, males, age control 50-59): 0.243
- Ethanolamine phospholipid ratio to M01, Mean, Age Ctl, 60-69, Male ([1]; serum, males, age control 60-69): 0.199
- Ethanolamine phospholipid ratio to M01, Mean, Age Ctl, 70+_Male ([1]; serum, males, age control 70+): 0.210
- Ethanolamine phospholipid ratio to M01, Mean, Post Mortem SDAT Male ([1]; serum, males, post mortem SDAT): 0.046
- Ratio of ethanolamine phospholipid ratio to M01, SDAT vs Control (post mortem, males) ([1]; serum, males, post mortem SDAT vs post mortem control): 0.581
- Ethanolamine phospholipid ratio to M01, Mean, Post Mortem Ctl, Male ([1]; serum, males, post mortem control): 0.080
- Ratio of serum levels ([2]; AD, All to CN, Male): 0.877
- Ratio of serum levels ([2]; ADAS 5-19 to CN, Male): 0.855
- Ratio of serum levels ([2]; ADAS 20-39 to 5-19, Male): 1.024
- Ratio of serum levels ([2]; ADAS 20-39 to CN, Male): 0.876
- Ratio of serum levels ([2]; ADAS 40-70 to 5-19, Male): 1.001
- Ratio of serum levels ([2]; ADAS 40-70 to 20-39, Male): 0.978
- Ratio of serum levels ([2]; ADAS 40-70 to CN, Male): 0.856
- Serum level, Mean ([2]; Cognitive Normal, Female): 0.027
- Average serum level, Mean ([2]; Cognitive Normal, Male): 0.028
- Serum level, Mean ([2]; Post Mortem Ctl, Male): 0.009
- Serum level, Mean ([2]; Post Mortem SDAT Male): 0.006
- Ratio of serum levels ([2]; Post mortem SDAT vs Control, Male): 0.475
- Serum level, Mean ([2]; SDAT, ADAS 5-19, Female): 0.024
- Average serum level, Mean ([2]; SDAT, ADAS 5-19, Male): 0.024
- Serum level, Mean ([2]; SDAT, ADAS 20-39, Female): 0.023
- Average serum level, Mean ([2]; SDAT, ADAS 20-39, Male): 0.025
- Serum level, Mean ([2]; SDAT, ADAS 40-70, Female): 0.020
- Average serum level, Mean ([2]; SDAT, ADAS 40-70, Male): 0.024
- Serum level, Mean ([2]; SDAT_all, Female): 0.022
- Average serum level, Mean ([2]; SDAT_all, Male): 0.025
- Ratio, ADAS 5-19 to CN, Female ([2]; serum level ratio, females, ADAS 5-19 vs CN): 0.910
- Ratio, ADAS 20-39 to 5-19, Female ([2]; serum level ratio, females, ADAS 20-39 vs ADAS 5-19): 0.955
- Ratio, ADAS 20-39 to CN, Female ([2]; serum level ratio, females, ADAS 20-39 vs CN): 0.869
- Ratio, ADAS 40-70 to 5-19, Female ([2]; serum level ratio, females, ADAS 40-70 vs ADAS 5-19): 0.837
- Ratio, ADAS 40-70 to 20-39, Female ([2]; serum level ratio, females, ADAS 40-70 vs ADAS 20-39): 0.876
- Ratio, ADAS 40-70 to CN, Female ([2]; serum level ratio, females, ADAS 40-70 vs CN): 0.761
- Ratio, 50-59 vs. 40-49, Female ([2]; serum level ratio, females, age 50-59 vs 40-49): 0.815
- Ratio, 60-69 vs. 40-49, Female ([2]; serum level ratio, females, age 60-69 vs 40-49): 0.731
- Ratio, 70+ vs. 40-49, Female ([2]; serum level ratio, females, age 70+ vs 40-49): 0.805
- Ratio, AD, All to CN, Female ([2]; serum level ratio, females, all AD vs cognitively normal): 0.843
- Ratio, Autopsy AD vs. Control, Female ([2]; serum level ratio, females, autopsy AD vs control): 0.531
- Ratio, 50-59 vs. 40-49, Male ([2]; serum level ratio, males, age 50-59 vs 40-49): 1.031
- Ratio, 60-69 vs. 40-49, Male ([2]; serum level ratio, males, age 60-69 vs 40-49): 0.976
- Ratio, 70+ vs. 40-49, Male ([2]; serum level ratio, males, age 70+ vs 40-49): 1.054
- Mean serum level, Age Ctl, 30-39, Female ([2]; serum, females, age 30-39): 0.031
- Mean serum level, Age Ctl, 40-49, Female ([2]; serum, females, age 40-49): 0.031
- Mean serum level, Age Ctl, 50-59, Female ([2]; serum, females, age 50-59): 0.025
- Mean serum level, Age Ctl, 60-69, Female ([2]; serum, females, age 60-69): 0.023
- Mean serum level, Age Ctl, 70+, Female ([2]; serum, females, age 70+): 0.025
- Mean serum level, Post Mortem SDAT, Female [2, 3]: 0.004
- Mean serum level, Post Mortem Ctl, Female [2, 4]: 0.011
- Mean serum level, Age Ctl, 30-39, Male ([2]; serum, males, age 30-39): 0.032
- Mean serum level, Age Ctl, 40-49, Male ([2]; serum, males, age 40-49): 0.026
- Mean serum level, Age Ctl, 50-59, Male ([2]; serum, males, age 50-59): 0.026
- Mean serum level, Age Ctl, 60-69, Male ([2]; serum, males, age 60-69): 0.025
- Mean serum level, Age Ctl, 70+, Male ([2]; serum, males, age 70+): 0.027
